Measured values: PMC7335352
No constants are given. Whether binding was seen depends on the method and setting. Some binding calls cover weakened binding; strength is not graded here.

The chains behind the UniProt entries cited, without tags or fusion partners. Where a name states a change or a piece, a line headed by the entry shows the natural chain unless it says otherwise.
UniProt Q15003: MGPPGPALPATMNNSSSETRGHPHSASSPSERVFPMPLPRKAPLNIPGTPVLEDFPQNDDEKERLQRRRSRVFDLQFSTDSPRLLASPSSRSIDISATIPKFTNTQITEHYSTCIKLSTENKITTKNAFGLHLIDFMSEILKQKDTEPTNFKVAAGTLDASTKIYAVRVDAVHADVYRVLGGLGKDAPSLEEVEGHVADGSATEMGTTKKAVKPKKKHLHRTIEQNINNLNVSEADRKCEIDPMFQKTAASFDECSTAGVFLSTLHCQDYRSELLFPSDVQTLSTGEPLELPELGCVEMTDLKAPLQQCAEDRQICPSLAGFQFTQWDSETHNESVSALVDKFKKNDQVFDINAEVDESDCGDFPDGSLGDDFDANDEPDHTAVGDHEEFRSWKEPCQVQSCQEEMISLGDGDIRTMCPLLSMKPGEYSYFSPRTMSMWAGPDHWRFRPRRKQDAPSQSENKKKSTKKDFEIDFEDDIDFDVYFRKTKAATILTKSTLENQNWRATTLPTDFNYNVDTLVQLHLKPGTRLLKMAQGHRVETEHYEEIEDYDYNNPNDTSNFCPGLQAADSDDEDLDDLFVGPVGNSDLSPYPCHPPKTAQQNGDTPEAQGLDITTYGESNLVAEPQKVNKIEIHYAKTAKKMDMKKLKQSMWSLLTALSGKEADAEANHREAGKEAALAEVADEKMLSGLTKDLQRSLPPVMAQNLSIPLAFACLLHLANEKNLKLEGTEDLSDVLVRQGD
UniProt Q9NTJ3: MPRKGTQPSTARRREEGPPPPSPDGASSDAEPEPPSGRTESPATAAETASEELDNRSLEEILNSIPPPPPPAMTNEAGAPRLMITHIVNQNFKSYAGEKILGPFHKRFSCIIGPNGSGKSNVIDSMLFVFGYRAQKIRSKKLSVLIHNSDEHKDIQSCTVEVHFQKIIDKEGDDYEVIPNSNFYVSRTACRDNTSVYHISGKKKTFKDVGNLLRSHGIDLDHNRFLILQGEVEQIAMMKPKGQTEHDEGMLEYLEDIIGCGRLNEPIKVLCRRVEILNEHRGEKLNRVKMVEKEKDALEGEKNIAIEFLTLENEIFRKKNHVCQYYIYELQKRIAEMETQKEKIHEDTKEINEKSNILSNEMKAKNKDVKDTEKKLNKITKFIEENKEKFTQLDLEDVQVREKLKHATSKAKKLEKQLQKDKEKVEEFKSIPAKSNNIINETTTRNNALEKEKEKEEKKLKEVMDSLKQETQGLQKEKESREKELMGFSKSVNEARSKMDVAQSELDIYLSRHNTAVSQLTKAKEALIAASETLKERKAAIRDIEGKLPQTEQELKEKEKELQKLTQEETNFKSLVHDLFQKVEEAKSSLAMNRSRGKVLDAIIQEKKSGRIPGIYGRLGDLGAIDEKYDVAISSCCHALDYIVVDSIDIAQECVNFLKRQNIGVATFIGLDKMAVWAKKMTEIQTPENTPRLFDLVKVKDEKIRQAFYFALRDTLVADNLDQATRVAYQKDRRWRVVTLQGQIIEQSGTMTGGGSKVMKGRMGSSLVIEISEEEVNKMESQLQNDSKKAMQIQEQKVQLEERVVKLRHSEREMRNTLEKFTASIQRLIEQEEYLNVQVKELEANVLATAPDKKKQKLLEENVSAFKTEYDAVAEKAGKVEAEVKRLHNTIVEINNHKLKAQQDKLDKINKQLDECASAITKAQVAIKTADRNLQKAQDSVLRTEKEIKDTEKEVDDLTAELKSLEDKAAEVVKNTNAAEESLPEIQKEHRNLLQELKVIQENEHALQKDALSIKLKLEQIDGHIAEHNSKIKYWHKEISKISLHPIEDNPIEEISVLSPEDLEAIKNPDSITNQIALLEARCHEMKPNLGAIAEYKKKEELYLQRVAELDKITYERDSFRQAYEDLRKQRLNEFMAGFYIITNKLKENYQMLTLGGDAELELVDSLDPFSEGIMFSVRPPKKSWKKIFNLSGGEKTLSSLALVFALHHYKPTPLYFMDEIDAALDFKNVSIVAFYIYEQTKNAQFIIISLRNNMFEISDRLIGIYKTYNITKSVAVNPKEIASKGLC
UniProt O95347: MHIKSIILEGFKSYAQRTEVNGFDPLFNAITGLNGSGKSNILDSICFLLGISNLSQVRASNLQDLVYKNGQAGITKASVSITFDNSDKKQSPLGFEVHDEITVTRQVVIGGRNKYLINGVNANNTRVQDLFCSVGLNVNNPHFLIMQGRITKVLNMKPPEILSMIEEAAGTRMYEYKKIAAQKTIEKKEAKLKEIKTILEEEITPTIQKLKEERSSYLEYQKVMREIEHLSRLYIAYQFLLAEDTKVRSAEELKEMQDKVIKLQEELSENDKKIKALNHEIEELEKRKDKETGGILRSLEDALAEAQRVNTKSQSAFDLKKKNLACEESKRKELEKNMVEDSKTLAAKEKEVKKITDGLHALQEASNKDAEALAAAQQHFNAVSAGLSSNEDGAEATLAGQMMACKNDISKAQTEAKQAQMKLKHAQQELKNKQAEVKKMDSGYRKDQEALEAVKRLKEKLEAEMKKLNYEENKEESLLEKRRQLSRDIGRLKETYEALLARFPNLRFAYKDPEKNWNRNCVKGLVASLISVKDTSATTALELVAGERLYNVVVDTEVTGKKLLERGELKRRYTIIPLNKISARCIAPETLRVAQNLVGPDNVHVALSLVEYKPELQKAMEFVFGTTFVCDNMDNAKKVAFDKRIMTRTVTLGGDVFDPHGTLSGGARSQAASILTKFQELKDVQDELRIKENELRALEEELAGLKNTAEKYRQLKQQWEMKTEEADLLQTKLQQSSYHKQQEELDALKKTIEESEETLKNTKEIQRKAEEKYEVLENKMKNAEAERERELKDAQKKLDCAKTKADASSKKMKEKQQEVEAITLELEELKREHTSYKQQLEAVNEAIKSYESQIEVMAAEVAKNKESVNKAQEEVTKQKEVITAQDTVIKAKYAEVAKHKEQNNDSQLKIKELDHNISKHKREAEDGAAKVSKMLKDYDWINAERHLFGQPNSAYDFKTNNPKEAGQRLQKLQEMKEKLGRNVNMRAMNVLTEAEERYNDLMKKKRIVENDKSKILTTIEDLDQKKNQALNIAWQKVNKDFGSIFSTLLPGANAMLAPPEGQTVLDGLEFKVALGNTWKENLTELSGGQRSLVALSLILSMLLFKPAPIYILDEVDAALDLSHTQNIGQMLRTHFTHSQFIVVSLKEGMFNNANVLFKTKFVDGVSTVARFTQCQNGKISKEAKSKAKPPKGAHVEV
UniProt Q15021: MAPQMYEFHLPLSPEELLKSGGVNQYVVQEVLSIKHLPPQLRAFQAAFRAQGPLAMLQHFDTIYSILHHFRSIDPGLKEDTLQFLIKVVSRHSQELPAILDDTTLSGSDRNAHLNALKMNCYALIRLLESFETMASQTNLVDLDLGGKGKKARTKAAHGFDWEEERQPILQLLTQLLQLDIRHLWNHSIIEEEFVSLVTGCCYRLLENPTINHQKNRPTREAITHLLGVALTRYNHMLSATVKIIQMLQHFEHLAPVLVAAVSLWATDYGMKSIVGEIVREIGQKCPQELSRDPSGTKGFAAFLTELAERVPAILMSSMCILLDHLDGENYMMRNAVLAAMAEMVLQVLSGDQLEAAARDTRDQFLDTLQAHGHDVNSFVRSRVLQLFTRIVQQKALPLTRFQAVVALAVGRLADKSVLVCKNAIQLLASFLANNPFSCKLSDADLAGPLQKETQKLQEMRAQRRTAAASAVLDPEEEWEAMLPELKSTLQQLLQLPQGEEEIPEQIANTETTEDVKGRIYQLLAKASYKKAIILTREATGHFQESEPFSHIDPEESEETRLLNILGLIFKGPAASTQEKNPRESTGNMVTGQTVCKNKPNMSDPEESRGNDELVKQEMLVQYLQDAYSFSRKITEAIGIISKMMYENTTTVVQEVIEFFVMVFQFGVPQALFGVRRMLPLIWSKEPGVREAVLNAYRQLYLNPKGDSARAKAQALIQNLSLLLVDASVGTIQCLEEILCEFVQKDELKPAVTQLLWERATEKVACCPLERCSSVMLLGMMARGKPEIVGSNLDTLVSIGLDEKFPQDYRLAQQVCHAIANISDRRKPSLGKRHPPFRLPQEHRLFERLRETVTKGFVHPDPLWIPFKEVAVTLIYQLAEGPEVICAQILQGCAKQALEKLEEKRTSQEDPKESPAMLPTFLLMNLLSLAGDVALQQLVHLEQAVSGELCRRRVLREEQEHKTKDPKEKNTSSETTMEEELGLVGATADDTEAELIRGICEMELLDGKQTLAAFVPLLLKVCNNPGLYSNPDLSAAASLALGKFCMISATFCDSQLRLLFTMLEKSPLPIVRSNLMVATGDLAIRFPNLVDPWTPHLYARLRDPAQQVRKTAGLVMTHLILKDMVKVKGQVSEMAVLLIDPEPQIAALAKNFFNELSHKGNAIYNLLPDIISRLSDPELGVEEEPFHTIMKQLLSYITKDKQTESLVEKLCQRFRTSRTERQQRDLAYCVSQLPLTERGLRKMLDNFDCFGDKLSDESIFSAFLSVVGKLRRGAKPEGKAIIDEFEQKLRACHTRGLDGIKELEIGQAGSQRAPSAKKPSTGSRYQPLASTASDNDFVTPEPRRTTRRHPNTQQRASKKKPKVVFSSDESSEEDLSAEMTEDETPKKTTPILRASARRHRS

Legend:
[1] = molecular target: CapH ybbR + 2x strep, labelled with Alexa Fluor 647 (human) (UniProt Q15003); assay: SEC; purified ybbR-tagged complexes (wild type and Q-loop mutants) after Sfp labelling with CoA-Alexa647, Superose 6 10/300; subunits seen by SDS-PAGE; both purified
CapH 2x strep (human) [2] = molecular target: CapH 2x strep (human) (UniProt Q15003); assay: SEC; five subunits co-expressed in High Five cells; complex captured on StrepTrap HP, then HiTrap Heparin, then Superose 6 16/70 or Increase 10/300 in 20 mM HEPES pH 8, 300 mM KCl, 5 mM MgCl2, 1 mM DTT, 10% glycerol; peak checked by SDS-PAGE and MS/MS; both purified
CapH 2x strep (human) [3] = molecular target: CapH 2x strep (human) (UniProt Q15003); assay: cross-linking; purified condensin I and II complexes with 2 mM ATPγS, 3 mM DSBU, 25°C, 1 hour, 20 mM HEPES pH 8, 300 mM KCl, 10 mM MgCl2, 1% glycerol, 1 mM TCEP; LC-MS/MS, MeroX; crosslinks found at least 3 times; both purified

binding [1]	binding (CapH 2x strep (human) [2])	binding (CapH 2x strep (human) [3])	Substance
binds			6x His SMC4 Q229L (from UniProt Q9NTJ3 1-1288)
binds			SMC2 Q147L (from UniProt O95347 1-1197)

Further lines, the substance ahead of its results:

Substance	binding [1]	binding (CapH 2x strep (human) [2])	binding (CapH 2x strep (human) [3])
SMC2 (from UniProt O95347 1-1197)	binds	binds	binds
CAP-D2 (from UniProt Q15021 1-1401)	binds	binds	binds
6x His SMC4 (from UniProt Q9NTJ3 1-1288)	binds	binds	binds
